Measurements reported in publication PMC6026704.

Amino acid sequences for entries named in this document (tags omitted). A change or cut given only in a name is not applied to a line headed by its entry. Chains listed by the source or under a name are the forms on record and can include a tag or linker.
UniProt P06733: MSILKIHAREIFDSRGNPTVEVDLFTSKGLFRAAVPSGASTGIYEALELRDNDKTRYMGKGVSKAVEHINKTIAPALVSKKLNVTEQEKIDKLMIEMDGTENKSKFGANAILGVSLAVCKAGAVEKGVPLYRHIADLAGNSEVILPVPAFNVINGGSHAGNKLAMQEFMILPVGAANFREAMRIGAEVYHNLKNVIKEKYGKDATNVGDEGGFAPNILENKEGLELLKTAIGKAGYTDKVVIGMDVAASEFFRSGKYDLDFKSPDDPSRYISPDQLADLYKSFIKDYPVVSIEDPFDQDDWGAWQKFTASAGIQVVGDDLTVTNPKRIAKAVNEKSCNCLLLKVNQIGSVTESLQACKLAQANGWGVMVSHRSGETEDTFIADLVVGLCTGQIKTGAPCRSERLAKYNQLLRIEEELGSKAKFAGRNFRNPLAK
UniProt P68104: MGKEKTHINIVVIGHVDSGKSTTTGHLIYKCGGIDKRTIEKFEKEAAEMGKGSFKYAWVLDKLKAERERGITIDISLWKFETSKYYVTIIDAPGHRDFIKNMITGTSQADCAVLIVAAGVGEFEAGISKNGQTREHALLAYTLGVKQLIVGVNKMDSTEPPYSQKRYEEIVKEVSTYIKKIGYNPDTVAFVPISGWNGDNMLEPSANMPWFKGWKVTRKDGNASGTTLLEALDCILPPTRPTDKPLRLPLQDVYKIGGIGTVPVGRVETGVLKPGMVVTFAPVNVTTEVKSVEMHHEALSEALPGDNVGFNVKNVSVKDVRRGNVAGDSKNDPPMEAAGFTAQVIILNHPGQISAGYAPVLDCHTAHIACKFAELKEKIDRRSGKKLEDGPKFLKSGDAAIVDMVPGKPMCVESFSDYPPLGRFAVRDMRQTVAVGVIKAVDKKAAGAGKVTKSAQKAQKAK
UniProt P04406: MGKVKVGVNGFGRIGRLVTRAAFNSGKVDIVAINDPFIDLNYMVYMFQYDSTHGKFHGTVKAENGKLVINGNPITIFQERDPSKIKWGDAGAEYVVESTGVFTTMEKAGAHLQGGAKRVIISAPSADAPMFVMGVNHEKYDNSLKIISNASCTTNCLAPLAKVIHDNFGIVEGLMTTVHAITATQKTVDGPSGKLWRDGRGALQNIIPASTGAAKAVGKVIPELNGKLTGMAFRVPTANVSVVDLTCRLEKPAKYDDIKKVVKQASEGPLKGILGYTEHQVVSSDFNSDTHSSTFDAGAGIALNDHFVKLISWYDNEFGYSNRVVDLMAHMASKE
UniProt P0DMV8: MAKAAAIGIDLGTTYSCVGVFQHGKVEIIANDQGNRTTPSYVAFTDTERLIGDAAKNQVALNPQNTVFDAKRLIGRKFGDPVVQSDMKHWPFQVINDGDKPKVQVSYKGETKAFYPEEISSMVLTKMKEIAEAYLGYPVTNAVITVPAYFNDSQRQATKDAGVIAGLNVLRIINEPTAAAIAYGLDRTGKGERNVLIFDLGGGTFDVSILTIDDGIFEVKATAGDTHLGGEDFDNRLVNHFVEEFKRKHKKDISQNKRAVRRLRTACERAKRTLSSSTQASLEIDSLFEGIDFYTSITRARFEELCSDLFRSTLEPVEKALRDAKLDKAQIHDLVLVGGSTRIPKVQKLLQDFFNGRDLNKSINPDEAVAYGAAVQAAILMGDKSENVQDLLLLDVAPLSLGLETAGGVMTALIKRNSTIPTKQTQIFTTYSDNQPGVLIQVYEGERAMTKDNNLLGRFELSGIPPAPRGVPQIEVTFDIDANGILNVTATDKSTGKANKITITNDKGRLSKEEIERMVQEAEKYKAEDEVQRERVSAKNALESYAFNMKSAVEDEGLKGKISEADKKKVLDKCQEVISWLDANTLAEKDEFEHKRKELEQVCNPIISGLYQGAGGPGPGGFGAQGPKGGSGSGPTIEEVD
UniProt P17066: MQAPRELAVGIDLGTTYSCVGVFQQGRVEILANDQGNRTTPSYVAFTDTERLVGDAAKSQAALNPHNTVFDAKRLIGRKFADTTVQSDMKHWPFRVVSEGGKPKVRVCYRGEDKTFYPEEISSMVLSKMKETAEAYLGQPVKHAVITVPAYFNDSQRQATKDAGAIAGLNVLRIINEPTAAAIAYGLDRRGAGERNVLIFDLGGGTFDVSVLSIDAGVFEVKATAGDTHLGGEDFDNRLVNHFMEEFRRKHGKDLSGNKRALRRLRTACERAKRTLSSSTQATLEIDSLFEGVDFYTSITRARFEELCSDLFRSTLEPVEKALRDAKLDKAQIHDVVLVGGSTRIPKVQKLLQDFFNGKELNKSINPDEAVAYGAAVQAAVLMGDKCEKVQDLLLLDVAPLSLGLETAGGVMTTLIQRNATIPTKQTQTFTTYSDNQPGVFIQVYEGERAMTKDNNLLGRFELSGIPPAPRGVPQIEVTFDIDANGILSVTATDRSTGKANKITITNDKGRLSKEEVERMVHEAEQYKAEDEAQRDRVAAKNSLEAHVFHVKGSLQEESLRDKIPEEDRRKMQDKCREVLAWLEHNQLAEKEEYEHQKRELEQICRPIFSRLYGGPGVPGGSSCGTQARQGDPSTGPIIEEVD
UniProt P11142: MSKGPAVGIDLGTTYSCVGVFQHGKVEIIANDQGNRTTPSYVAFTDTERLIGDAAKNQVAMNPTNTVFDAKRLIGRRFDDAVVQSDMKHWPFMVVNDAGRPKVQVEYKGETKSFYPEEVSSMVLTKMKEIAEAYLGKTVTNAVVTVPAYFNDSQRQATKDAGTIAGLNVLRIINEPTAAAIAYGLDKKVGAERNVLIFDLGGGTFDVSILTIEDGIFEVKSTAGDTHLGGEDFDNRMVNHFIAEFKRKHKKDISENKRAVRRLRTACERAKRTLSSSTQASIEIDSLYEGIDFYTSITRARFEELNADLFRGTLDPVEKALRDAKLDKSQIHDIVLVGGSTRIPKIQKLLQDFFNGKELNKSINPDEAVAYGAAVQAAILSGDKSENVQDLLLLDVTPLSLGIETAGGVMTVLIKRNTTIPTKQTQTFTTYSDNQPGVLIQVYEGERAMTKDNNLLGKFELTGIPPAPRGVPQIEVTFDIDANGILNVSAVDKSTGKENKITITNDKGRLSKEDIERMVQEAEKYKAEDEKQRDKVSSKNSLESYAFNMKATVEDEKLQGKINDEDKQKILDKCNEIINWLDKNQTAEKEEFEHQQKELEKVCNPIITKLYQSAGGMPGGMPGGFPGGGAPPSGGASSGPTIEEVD
UniProt P08238: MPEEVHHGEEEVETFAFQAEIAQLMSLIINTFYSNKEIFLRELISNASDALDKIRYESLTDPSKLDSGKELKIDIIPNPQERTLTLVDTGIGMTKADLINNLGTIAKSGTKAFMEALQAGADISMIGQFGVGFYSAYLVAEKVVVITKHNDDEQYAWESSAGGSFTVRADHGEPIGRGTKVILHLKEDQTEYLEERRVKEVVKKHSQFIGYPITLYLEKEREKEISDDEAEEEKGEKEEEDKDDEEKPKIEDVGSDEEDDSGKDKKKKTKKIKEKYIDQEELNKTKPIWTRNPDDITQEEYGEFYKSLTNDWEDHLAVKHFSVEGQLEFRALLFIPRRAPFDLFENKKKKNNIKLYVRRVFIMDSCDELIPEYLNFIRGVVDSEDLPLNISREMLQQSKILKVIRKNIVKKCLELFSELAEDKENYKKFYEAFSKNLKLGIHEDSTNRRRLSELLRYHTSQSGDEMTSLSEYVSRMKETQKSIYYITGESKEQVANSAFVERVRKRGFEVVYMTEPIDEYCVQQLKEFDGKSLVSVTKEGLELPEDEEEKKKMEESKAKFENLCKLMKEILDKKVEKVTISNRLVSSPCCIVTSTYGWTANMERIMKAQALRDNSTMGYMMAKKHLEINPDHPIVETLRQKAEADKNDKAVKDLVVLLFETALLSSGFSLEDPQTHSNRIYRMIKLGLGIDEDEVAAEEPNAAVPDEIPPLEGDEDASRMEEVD
UniProt Q04760: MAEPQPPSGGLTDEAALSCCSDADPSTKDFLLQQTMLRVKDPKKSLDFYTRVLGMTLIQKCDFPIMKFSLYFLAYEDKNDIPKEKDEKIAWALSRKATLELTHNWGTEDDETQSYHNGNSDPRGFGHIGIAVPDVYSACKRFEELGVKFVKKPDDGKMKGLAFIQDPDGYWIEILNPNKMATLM
Nucleophosmin 1, isoform 2 (P06748-2, form named): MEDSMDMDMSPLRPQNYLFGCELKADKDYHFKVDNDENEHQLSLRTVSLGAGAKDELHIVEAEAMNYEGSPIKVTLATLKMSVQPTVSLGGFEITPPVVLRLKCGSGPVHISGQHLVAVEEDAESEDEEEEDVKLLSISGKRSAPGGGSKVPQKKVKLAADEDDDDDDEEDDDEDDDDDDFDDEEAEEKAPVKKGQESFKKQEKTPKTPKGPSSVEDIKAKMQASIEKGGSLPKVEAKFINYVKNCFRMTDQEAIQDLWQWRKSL
UniProt Q9BQE3: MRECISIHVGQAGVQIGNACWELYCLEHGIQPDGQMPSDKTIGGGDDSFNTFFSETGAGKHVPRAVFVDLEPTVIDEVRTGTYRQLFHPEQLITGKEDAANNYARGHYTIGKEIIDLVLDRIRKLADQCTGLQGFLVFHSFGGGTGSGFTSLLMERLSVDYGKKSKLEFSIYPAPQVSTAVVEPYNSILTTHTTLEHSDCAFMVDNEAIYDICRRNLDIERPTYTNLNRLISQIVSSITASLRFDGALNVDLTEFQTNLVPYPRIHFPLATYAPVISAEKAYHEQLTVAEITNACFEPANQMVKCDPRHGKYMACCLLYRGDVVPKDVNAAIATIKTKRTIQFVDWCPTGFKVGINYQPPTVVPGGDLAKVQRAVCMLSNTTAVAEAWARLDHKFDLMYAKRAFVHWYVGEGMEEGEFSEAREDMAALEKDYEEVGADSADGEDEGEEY
UniProt P07437: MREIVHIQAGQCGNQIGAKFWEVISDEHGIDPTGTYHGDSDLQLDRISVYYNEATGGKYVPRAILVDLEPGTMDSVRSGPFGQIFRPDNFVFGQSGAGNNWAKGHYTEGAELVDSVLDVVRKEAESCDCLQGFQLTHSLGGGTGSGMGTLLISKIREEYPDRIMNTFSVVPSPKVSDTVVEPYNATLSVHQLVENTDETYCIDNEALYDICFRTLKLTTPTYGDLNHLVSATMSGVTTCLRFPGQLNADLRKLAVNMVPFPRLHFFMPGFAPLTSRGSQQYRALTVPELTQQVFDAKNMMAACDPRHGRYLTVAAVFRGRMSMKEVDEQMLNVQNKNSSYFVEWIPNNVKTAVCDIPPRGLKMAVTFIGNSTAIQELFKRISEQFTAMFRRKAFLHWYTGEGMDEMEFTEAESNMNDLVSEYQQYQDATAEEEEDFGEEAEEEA
UniProt P68371: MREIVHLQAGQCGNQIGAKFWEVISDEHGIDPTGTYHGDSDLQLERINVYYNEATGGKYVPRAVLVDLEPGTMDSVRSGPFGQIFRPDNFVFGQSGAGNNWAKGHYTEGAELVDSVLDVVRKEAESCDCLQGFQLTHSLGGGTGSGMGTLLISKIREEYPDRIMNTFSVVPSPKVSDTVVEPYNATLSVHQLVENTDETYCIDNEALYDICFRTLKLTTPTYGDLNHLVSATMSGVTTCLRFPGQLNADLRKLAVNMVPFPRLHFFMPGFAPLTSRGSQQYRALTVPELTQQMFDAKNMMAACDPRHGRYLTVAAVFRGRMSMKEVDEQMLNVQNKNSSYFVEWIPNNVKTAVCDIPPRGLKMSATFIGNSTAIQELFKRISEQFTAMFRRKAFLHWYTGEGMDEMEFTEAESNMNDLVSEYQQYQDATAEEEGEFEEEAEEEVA

T1: Suppressor of IKKepsilon (SIKE), WT, FLAG-tagged (pCMVFLAG5a SIKE 6xHis) (human) (UniProt Q9BRV8)
T1 sequence: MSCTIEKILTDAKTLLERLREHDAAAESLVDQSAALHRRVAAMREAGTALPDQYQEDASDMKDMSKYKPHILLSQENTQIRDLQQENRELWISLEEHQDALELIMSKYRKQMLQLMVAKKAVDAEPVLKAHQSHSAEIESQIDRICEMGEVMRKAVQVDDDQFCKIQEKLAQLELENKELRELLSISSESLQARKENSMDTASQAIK


target: T1, Suppressor of IKKepsilon (SIKE), WT, FLAG-tagged (pCMVFLAG5a SIKE 6xHis) (human); experiment: affinity purification with mass spectrometry; FLAG-tagged SIKE precipitated from HEK293 lysate (5 mg protein) with anti-FLAG M2 affinity gel overnight at 4 °C, washed with TBS, eluted with FLAG peptide, tryptic digest, LC-MS/MS; basal or dsRNA (50 ug/mL pI:pC, 3 h) stimulated cells

binding | Molecule
binds | Alpha-enolase (from UniProt P06733 1-434) (enzyme)
binds | Elongation factor 1-alpha 1 (from UniProt P68104 1-462)
binds | Glyceraldehyde-3-phosphate dehydrogenase (from UniProt P04406 1-335) (enzyme)
binds | Heat shock 70-kDa protein 1A/1B (from UniProt P0DMV8 1-641)
binds | Heat shock 70-kDa protein 6 (from UniProt P17066 1-643)
binds | Heat shock cognate 71-kDa protein (from UniProt P11142 1-646)
binds | Heat shock protein HSP 90-beta (from UniProt P08238 1-724)
binds | Lactoylglutathione lyase (from UniProt Q04760 1-184) (enzyme)
binds | Nucleophosmin 1, isoform 2 (from UniProt P06748-2 1-265)
binds | Tubulin alpha-1C chain (from UniProt Q9BQE3 1-449)
binds | Tubulin beta chain (from UniProt P07437 1-444)
binds | Tubulin beta-4B chain (from UniProt P68371 1-445)
binds | Treacle protein (protein, UniProt Q13428 1-1488) MAEARKRRELLPLIYHHLLRAGYVRAAREVKEQSGQKCFLAQPVTLLDIYTHWQQTSELGRKRKAEEDAALQAKKTRVSDPISTSESSEEEEEAEAETAKATPRLASTNSSVLGADLPSSMKEKAKAETEKAGKTGNSMPHPATGKTVANLLSGKSPRKSAEPSANTTLVSETEEEGSVPAFGAAAKPGMVSAGQADSSSEDTSSSSDETDVEGKPSVKPAQVKASSVSTKESPARKAAPAPGKVGDVTPQVKGGALPPAKRAKKPEEESESSEEGSESEEEAPAGTRSQVKASEKILQVRAASAPAKGTPGKGATPAPPGKAGAVASQTKAGKPEEDSESSSEESSDSEEETPAAKALLQAKASGKTSQVGAASAPAKESPRKGAAPAPPGKTGPAVAKAQAGKREEDSQSSSEESDSEEEAPAQAKPSGKAPQVRAASAPAKESPRKGAAPAPPRKTGPAAAQVQVGKQEEDSRSSSEESDSDREALAAMNAAQVKPLGKSPQVKPASTMGMGPLGKGAGPVPPGKVGPATPSAQVGKWEEDSESSSEESSDSSDGEVPTAVAPAQEKSLGNILQAKPTSSPAKGPPQKAGPVAVQVKAEKPMDNSESSEESSDSADSEEAPAAMTAAQAKPALKIPQTKACPKKTNTTASAKVAPVRVGTQAPRKAGTATSPAGSSPAVAGGTQRPAEDSSSSEESDSEEEKTGLAVTVGQAKSVGKGLQVKAASVPVKGSLGQGTAPVLPGKTGPTVTQVKAEKQEDSESSEEESDSEEAAASPAQVKTSVKKTQAKANPAAARAPSAKGTISAPGKVVTAAAQAKQRSPSKVKPPVRNPQNSTVLARGPASVPSVGKAVATAAQAQTGPEEDSGSSEEESDSEEEAETLAQVKPSGKTHQIRAALAPAKESPRKGAAPTPPGKTGPSAAQAGKQDDSGSSSEESDSDGEAPAAVTSAQVIKPPLIFVDPNRSPAGPAATPAQAQAASTPRKARASESTARSSSSESEDEDVIPATQCLTPGIRTNVVTMPTAHPRIAPKASMAGASSSKESSRISDGKKQEGPATQVSKKNPASLPLTQAALKVLAQKASEAQPPVARTQPSSGVDSAVGTLPATSPQSTSVQAKGTNKLRKPKLPEVQQATKAPESSDDSEDSSDSSSGSEEDGEGPQGAKSAHTLGPTPSRTETLVEETAAESSEDDVVAPSQSLLSGYMTPGLTPANSQASKATPKLDSSPSVSSTLAAKDDPDGKQEAKPQQAAGMLSPKTGGKEAASGTTPQKSRKPKKGAGNPQASTLALQSNITQCLLGQPWPLNEAQVQASVVKVLTELLEQERKKVVDTTKESSRKGWESRKRKLSGDQPAARTPRSKKKKKLGAGEGGEASVSPEKTSTTSKGKAKRDKASGDVKEKKGKGSLGSQGAKDEPEEELQKGMGTVEGGDQSNPKSKKEKKKSDKRKKDKEKKEKKKKAKKASTKDSESPSQKKKKKKKKTAEQTV
binds | UPF0568 protein C14orf166 (protein, UniProt Q9Y224 1-244) MFRRKLTALDYHNPAGFNCKDETEFRNFIVWLEDQKIRHYKIEDRGNLRNIHSSDWPKFFEKYLRDVNCPFKIQDRQEAIDWLLGLAVRLEYGDNAEKYKDLVPDNSKTADNATKNAEPLINLDVNNPDFKAGVMALANLLQIQRHDDYLVMLKAIRILVQERLTQDAVAKANQTKEGLPVALDKHILGFDTGDAVLNEAAQILRLLHIEELRELQTKINEAIVAVQAIIADPKTDHRLGKVGR

These are yes or no findings as the source states them, for the method shown. In cells and extracts the contact can be indirect. A yes stands for co-enrichment or nearness to the bait. Other partners may have been found. Sequences can lack the tags named with a protein.
